Experimental data taken from PMC11525306.
No constants are given. Whether binding was seen depends on the method and setting. Binding seen in cells or lysates may run through a third protein. Some entries that bind do so weakly or less than the wild type.

Sequences of proteins named here, by UniProt entry; tags and fusion partners are left off.
UniProt P61966: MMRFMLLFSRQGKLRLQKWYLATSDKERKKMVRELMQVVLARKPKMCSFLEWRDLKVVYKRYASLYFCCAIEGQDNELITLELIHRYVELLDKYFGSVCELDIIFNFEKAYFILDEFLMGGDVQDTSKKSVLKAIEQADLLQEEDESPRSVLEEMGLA
UniProt O43747: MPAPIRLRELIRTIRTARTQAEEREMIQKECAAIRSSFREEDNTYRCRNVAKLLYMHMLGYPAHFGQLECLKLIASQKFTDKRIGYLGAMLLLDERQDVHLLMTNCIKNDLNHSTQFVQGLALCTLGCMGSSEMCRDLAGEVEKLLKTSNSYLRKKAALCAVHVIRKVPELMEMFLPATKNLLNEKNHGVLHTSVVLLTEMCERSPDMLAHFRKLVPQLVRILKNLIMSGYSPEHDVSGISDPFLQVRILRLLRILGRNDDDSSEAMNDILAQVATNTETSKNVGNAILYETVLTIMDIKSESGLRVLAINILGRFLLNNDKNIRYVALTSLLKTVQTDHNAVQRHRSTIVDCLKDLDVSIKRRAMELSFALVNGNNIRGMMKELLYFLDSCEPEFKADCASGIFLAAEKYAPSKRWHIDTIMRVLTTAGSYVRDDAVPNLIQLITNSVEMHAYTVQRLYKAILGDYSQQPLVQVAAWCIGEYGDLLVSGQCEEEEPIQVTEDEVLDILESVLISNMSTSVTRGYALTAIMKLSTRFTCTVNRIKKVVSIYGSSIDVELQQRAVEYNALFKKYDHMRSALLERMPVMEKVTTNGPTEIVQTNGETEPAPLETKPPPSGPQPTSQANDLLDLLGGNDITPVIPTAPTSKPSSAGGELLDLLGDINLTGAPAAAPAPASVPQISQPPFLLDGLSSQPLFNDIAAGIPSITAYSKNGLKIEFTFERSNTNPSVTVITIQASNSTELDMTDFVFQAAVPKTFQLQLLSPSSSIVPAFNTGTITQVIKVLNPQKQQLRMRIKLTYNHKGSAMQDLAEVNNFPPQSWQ

Biological target: myc-tagged σ1A WT (AP-1 σ1A subunit with a C-terminal triple-myc tag) (human) (UniProt P61966)
Test: co-IP; HEK293T cells transiently transfected with WT or L90P myc-tagged σ1A; cell extracts immunoprecipitated with anti-myc or with anti-γ1, then SDS-PAGE and immunoblotting with anti-γ1 or anti-myc (reciprocal); untransfected cells as control

## endogenous AP-1 γ1 subunit (from UniProt O43747 1-822)
  binding: binds
